# Structures can show the parent of a compound that is named as a salt. The list shows a part of the results. Hit calls seldom repeat between salt and free forms of one compound.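 Kinases were expressed as nanoluciferase fusions in K562 cells and luminescence was read every 4 h between 2 and 18 h as percent of control, DMSO set to 100% and a positive control to 0%. A time point counts as decreased when the signal drops significantly (2 sigma). The hit call is the authors' own, does not follow from the count of time points alone, and its rule is not shown.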
# Protein sequences, listed by entry. Tags and fused reporters are not part of them. Lines headed by an entry give the natural chain unless they say otherwise; changes in a name come on top.
# UniProt O75460: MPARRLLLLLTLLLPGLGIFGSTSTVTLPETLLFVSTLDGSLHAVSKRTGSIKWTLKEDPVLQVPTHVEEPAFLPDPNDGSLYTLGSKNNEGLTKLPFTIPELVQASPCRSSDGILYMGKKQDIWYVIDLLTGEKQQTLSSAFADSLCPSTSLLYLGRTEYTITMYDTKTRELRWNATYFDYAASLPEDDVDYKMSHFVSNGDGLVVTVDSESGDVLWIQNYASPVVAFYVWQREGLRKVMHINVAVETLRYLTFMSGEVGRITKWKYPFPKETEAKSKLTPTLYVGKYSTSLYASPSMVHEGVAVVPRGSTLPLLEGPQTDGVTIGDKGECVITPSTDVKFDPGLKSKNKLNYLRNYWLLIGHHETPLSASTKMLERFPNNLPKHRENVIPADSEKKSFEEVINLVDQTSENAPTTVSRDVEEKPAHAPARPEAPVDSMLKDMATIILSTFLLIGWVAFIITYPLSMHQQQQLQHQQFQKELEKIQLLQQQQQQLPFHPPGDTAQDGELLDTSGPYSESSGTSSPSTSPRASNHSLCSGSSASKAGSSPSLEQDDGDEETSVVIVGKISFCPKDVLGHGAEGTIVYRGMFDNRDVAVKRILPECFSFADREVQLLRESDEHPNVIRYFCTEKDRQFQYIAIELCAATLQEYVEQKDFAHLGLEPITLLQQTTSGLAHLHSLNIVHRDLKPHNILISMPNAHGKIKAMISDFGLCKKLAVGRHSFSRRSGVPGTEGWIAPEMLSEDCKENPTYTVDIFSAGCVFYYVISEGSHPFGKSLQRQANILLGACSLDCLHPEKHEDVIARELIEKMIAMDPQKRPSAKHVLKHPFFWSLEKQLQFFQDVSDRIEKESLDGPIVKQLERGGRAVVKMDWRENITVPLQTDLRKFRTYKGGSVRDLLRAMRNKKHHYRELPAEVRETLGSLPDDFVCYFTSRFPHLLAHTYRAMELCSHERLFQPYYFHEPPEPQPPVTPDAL
# UniProt P11362, whole entry, looked up: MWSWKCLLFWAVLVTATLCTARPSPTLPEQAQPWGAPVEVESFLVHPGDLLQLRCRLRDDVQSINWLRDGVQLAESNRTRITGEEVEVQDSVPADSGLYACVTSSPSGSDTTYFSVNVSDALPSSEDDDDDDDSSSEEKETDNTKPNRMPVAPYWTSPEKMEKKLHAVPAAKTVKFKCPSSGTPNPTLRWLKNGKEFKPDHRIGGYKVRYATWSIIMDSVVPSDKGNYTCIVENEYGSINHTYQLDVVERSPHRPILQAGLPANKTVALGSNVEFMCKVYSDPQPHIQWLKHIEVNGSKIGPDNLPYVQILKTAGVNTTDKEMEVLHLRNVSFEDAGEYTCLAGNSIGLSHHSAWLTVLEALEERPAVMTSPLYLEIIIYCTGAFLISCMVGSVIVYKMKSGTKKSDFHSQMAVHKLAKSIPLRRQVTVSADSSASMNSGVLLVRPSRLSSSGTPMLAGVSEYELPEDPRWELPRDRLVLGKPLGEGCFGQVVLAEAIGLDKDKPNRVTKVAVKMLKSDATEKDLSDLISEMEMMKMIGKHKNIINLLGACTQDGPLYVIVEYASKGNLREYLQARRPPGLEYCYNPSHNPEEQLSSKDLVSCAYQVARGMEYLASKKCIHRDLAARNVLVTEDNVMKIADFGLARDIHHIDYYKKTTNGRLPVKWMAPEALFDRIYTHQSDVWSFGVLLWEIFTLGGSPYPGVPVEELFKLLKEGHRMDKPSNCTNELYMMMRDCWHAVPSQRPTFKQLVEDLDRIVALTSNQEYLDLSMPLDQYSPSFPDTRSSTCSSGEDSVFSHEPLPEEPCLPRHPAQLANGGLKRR
# UniProt P21802, whole entry, looked up: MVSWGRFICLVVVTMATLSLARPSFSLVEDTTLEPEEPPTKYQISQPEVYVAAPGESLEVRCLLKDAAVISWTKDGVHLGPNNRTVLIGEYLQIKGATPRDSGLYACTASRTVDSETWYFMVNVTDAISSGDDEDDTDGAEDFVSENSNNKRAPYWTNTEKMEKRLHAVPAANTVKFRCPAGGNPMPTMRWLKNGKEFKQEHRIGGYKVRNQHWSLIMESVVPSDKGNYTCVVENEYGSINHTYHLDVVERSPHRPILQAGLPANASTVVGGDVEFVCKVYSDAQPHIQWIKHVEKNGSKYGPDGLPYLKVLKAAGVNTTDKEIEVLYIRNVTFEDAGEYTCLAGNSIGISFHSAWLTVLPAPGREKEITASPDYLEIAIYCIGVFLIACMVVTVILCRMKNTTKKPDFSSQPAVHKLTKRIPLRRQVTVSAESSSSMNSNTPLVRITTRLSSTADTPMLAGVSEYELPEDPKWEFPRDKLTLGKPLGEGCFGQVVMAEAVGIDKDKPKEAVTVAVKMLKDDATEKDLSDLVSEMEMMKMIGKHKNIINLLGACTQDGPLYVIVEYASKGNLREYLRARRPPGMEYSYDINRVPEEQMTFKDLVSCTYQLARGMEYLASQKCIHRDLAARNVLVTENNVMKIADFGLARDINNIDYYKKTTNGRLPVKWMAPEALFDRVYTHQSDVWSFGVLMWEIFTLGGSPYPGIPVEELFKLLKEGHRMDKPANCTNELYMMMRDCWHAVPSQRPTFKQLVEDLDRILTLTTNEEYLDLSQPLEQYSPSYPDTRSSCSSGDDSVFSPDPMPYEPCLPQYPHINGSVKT
# UniProt Q9Y616: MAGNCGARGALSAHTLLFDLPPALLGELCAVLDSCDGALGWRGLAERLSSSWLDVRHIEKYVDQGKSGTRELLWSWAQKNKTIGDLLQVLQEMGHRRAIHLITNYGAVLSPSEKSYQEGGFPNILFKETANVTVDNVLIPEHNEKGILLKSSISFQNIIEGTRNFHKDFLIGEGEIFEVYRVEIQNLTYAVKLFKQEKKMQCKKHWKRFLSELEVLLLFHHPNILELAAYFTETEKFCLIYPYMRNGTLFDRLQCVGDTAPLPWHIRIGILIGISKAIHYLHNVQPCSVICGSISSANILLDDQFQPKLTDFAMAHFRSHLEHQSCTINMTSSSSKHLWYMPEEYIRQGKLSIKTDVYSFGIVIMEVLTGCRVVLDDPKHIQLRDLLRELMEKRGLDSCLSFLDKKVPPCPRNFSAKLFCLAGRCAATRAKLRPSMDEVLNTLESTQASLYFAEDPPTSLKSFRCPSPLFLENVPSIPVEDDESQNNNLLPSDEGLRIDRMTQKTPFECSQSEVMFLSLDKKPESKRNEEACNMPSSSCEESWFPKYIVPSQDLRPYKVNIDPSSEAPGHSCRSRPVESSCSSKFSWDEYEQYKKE
# UniProt P06239: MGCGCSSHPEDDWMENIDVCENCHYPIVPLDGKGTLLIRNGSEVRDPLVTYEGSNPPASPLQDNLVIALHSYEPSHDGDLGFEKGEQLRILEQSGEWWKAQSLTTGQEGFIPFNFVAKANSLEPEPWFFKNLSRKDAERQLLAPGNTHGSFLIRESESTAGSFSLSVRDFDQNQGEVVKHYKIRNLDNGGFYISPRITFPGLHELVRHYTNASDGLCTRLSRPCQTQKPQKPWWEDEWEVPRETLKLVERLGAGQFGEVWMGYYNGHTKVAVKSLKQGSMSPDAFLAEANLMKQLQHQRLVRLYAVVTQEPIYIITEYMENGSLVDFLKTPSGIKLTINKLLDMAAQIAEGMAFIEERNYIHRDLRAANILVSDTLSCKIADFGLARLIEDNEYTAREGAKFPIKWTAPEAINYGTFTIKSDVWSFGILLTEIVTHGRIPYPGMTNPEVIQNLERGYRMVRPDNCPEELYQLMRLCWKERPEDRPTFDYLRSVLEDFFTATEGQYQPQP
# UniProt P53667: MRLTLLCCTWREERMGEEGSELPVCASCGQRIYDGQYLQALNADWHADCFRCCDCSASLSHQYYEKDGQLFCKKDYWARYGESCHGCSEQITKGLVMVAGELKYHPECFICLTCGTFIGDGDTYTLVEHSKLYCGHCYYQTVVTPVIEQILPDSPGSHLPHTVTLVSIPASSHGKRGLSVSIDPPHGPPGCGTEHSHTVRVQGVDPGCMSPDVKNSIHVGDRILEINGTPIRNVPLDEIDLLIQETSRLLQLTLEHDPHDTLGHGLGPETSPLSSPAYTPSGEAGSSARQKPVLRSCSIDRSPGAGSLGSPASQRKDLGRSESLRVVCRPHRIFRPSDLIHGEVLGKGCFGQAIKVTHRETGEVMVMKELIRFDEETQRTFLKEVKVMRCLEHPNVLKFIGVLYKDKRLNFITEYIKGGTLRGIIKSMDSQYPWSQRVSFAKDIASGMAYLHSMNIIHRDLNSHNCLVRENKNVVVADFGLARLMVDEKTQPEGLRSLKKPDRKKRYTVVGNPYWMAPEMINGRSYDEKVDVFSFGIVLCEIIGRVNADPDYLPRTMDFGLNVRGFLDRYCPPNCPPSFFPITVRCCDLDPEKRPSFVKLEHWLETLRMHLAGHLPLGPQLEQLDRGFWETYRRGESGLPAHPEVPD
# UniProt P53671: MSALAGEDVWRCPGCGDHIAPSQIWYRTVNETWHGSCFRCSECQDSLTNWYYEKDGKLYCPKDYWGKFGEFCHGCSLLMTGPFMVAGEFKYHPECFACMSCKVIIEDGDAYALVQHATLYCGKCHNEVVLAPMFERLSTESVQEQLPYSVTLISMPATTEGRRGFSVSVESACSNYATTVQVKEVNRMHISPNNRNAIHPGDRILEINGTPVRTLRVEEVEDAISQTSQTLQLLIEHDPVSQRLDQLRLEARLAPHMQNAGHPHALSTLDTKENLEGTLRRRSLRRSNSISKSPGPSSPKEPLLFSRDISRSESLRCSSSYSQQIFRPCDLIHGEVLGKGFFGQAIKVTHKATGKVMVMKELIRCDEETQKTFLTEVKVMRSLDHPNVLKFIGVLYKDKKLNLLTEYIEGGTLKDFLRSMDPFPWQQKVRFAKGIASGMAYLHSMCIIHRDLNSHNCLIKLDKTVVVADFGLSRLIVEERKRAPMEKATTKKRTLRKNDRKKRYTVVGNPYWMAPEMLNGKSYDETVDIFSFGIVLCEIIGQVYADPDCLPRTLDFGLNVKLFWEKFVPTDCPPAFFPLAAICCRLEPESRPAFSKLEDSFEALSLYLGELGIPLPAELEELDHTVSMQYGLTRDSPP
# UniProt P07948: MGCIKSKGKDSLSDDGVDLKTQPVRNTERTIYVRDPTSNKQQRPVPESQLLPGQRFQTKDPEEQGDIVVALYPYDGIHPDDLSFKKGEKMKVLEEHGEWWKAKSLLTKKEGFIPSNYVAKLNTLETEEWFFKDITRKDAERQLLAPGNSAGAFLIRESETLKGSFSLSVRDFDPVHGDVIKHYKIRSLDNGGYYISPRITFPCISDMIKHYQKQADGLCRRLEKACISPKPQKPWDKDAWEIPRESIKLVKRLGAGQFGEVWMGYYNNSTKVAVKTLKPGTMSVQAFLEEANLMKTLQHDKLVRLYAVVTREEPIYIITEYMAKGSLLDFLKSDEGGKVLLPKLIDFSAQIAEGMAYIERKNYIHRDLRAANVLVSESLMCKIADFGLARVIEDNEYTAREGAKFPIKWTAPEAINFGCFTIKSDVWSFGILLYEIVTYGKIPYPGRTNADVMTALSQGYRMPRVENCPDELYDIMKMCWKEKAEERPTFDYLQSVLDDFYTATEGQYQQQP
# UniProt Q12851: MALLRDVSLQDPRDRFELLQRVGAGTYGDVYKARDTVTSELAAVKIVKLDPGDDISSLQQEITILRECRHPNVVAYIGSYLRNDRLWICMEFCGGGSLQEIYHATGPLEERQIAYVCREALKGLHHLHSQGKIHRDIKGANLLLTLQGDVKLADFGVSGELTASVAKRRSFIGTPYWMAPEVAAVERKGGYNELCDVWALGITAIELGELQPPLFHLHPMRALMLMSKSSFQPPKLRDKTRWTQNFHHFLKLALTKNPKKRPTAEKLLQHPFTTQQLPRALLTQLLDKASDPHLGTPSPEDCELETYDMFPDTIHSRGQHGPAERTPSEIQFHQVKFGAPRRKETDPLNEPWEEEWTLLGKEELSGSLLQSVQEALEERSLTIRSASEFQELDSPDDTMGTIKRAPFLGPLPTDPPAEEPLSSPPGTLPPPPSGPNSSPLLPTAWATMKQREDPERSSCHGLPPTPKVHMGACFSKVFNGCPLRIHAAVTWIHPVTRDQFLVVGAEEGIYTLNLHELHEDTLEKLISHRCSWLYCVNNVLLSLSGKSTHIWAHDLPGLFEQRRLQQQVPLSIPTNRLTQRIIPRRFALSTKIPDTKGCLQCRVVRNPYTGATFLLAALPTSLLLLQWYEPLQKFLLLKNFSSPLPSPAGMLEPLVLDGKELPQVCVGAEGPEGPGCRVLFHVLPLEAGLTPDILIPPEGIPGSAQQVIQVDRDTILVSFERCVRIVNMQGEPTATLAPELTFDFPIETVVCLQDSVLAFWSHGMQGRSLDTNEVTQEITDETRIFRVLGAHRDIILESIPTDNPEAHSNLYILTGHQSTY
# Legend:
# Experiment in all cases: kinase-Nluc reporter destabilization hit call (1 = scored as downregulated) (binary); higher = compound decreases kinase abundance
# Details in all cases: K562; 2-18 h
# [1] = biological target: ERN1 (UniProt O75460)
# [2] = biological target: FGFR1 (UniProt P11362)
# [3] = biological target: FGFR2 (UniProt P21802)
# [4] = biological target: FGFR3 (UniProt P22607)
# [5] = biological target: FGR (UniProt P09769)
# [6] = biological target: FLT3 (UniProt P36888)
# [7] = biological target: FYN (UniProt P06241)
# [8] = biological target: GSK3A (UniProt P49840)
# [9] = biological target: HER2 (UniProt P04626)
# [10] = biological target: INSRR (UniProt P14616)
# [11] = biological target: IRAK3 (UniProt Q9Y616)
# [12] = biological target: JAK1 (UniProt P23458)
# [13] = biological target: LCK (UniProt P06239)
# [14] = biological target: LIMK1 (UniProt P53667)
# [15] = biological target: LIMK2 (UniProt P53671)
# [16] = biological target: LMTK2 (UniProt Q8IWU2)
# [17] = biological target: LYN (UniProt P07948)
# [18] = biological target: MAP2K1 (UniProt Q02750)
# [19] = biological target: MAP2K2 (UniProt P36507)
# [20] = biological target: MAP4K2 (UniProt Q12851)
SMILES,kinase-Nluc reporter destabilization hit call [1],kinase-Nluc reporter destabilization hit call [2],kinase-Nluc reporter destabilization hit call [3],kinase-Nluc reporter destabilization hit call [4],kinase-Nluc reporter destabilization hit call [5],kinase-Nluc reporter destabilization hit call [6],kinase-Nluc reporter destabilization hit call [7],kinase-Nluc reporter destabilization hit call [8],kinase-Nluc reporter destabilization hit call [9],kinase-Nluc reporter destabilization hit call [10],kinase-Nluc reporter destabilization hit call [11],kinase-Nluc reporter destabilization hit call [12],kinase-Nluc reporter destabilization hit call [13],kinase-Nluc reporter destabilization hit call [14],kinase-Nluc reporter destabilization hit call [15],kinase-Nluc reporter destabilization hit call [16],kinase-Nluc reporter destabilization hit call [17],kinase-Nluc reporter destabilization hit call [18],kinase-Nluc reporter destabilization hit call [19],kinase-Nluc reporter destabilization hit call [20]
"CC(=O)c1cc(O)ccc1O [2,5-Dihydroxyacetophenone] (10 µM)",inactive: 0,inactive: 0,inactive: 0,inactive: 0,inactive: 0,inactive: 0,inactive: 0,inactive: 0,inactive: 0,inactive: 0,inactive: 0,inactive: 0,inactive: 0,inactive: 0,inactive: 0,inactive: 0,inactive: 0,inactive: 0,inactive: 0,inactive: 0
Cc1c(C(=O)Nc2ccc(Oc3ccnc4cc(OCC(C)(C)O)ccc34)c(F)c2)c(=O)n(-c2ccccc2)n1C [Ningetinib Tosylate] (10 µM),inactive: 0,inactive: 0,inactive: 0,inactive: 0,inactive: 0,inactive: 0,inactive: 0,inactive: 0,inactive: 0,inactive: 0,inactive: 0,inactive: 0,inactive: 0,inactive: 0,inactive: 0,inactive: 0,inactive: 0,inactive: 0,inactive: 0,inactive: 0
COc1ccc(F)cc1C(=O)NCc1ccc(-c2nn([C@@H](C)C(F)(F)F)c(N)c2C(N)=O)cc1 [Pirtobrutinib] (10 µM),inactive: 0,inactive: 0,inactive: 0,inactive: 0,inactive: 0,inactive: 0,inactive: 0,inactive: 0,inactive: 0,inactive: 0,inactive: 0,inactive: 0,inactive: 0,inactive: 0,inactive: 0,inactive: 0,inactive: 0,inactive: 0,inactive: 0,inactive: 0
COc1cc(OC)c(/C=C/S(=O)(=O)Cc2ccc(OC)c(NCC(=O)O)c2)c(OC)c1 [Rigosertib (sodium)] (10 µM),inactive: 0,inactive: 0,inactive: 0,inactive: 0,inactive: 0,inactive: 0,inactive: 0,inactive: 0,inactive: 0,inactive: 0,inactive: 0,inactive: 0,inactive: 0,inactive: 0,inactive: 0,inactive: 0,inactive: 0,inactive: 0,inactive: 0,inactive: 0
COc1c(OCCCN2CCOCC2)ccc2c3n(c(=NC(=O)c4cnc(N)nc4)nc12)CCN3 [Copanlisib (dihydrochloride)] (10 µM),inactive: 0,inactive: 0,inactive: 0,inactive: 0,inactive: 0,inactive: 0,inactive: 0,inactive: 0,inactive: 0,inactive: 0,inactive: 0,inactive: 0,inactive: 0,inactive: 0,inactive: 0,inactive: 0,inactive: 0,inactive: 0,inactive: 0,inactive: 0
CC(C)(C)S(=O)(=O)c1ccc2nccc(Nc3n[nH]c4ccc(F)cc34)c2c1 (10 µM),inactive: 0,inactive: 0,inactive: 0,inactive: 0,inactive: 0,inactive: 0,inactive: 0,inactive: 0,inactive: 0,inactive: 0,inactive: 0,inactive: 0,inactive: 0,inactive: 0,inactive: 0,inactive: 0,inactive: 0,inactive: 0,inactive: 0,inactive: 0
COc1ccc(C(=O)c2cn(C(C)C)c3ncnc(N)c23)cc1NC(=O)Nc1ccc(Cl)cc1Cl (10 µM),inactive: 0,inactive: 0,inactive: 0,inactive: 0,inactive: 0,inactive: 0,inactive: 0,inactive: 0,inactive: 0,inactive: 0,inactive: 0,inactive: 0,inactive: 0,inactive: 0,active: 1,inactive: 0,inactive: 0,inactive: 0,inactive: 0,inactive: 0
Cc1cc(Nc2ncc(Cl)c(Nc3ccccc3S(=O)(=O)C(C)C)n2)c(OC(C)C)cc1C1CCN(CC(=O)NCCNc2cccc3c2C(=O)N(C2CCC(=O)NC2=O)C3=O)CC1 (stereo not given) (10 µM),inactive: 0,inactive: 0,inactive: 0,inactive: 0,inactive: 0,inactive: 0,inactive: 0,inactive: 0,inactive: 0,inactive: 0,inactive: 0,inactive: 0,inactive: 0,inactive: 0,inactive: 0,inactive: 0,inactive: 0,inactive: 0,inactive: 0,inactive: 0
C[C@]1(O)C[C@@](N)(c2ccc(-c3nc4n(c3-c3ccccc3)COc3ccncc3-4)cc2)C1 [TAS-117 (hydrochloride)] (10 µM),inactive: 0,inactive: 0,inactive: 0,inactive: 0,inactive: 0,inactive: 0,inactive: 0,inactive: 0,inactive: 0,inactive: 0,inactive: 0,inactive: 0,inactive: 0,inactive: 0,inactive: 0,inactive: 0,inactive: 0,inactive: 0,inactive: 0,inactive: 0
C=CC(=O)N1CCN(c2nc(OC[C@@H]3CCCN3C)nc3c2CCN(c2cccc4cccc(C)c24)C3)C[C@@H]1CC#N (2.5 µM),inactive: 0,inactive: 0,inactive: 0,inactive: 0,inactive: 0,inactive: 0,inactive: 0,inactive: 0,inactive: 0,inactive: 0,inactive: 0,inactive: 0,inactive: 0,inactive: 0,inactive: 0,inactive: 0,inactive: 0,inactive: 0,inactive: 0,inactive: 0
COc1ccc(COc2cc3oc(=O)c4cc(C(C)O)ccc4c3cc2OC)cc1 (stereo not given) [Palomid 529] (2.5 µM),inactive: 0,inactive: 0,inactive: 0,inactive: 0,inactive: 0,inactive: 0,inactive: 0,inactive: 0,inactive: 0,inactive: 0,inactive: 0,inactive: 0,inactive: 0,inactive: 0,inactive: 0,inactive: 0,inactive: 0,inactive: 0,inactive: 0,inactive: 0
CC(=O)Nc1nc(C)c(-c2cc3c(c(S(C)(=O)=O)c2)C(=O)N([C@@H](C)C2CC2)C3)s1 (2.5 µM),inactive: 0,inactive: 0,inactive: 0,inactive: 0,inactive: 0,inactive: 0,inactive: 0,inactive: 0,inactive: 0,inactive: 0,inactive: 0,inactive: 0,inactive: 0,inactive: 0,inactive: 0,inactive: 0,inactive: 0,inactive: 0,inactive: 0,inactive: 0
CCCCNc1ncc2c(-c3ccc(CN4CCN(C)CC4)cc3)cn([C@H]3CC[C@H](O)CC3)c2n1 [UNC2025 (hydrochloride)] (2.5 µM),inactive: 0,inactive: 0,inactive: 0,inactive: 0,inactive: 0,inactive: 0,inactive: 0,inactive: 0,inactive: 0,inactive: 0,inactive: 0,inactive: 0,inactive: 0,inactive: 0,inactive: 0,inactive: 0,inactive: 0,inactive: 0,inactive: 0,inactive: 0
CC(C)(O)c1cc(Nc2cc(Oc3cn(C4CC4)nc3C3CCOCC3)ccn2)ccn1 (10 µM),inactive: 0,inactive: 0,inactive: 0,inactive: 0,inactive: 0,inactive: 0,inactive: 0,inactive: 0,inactive: 0,inactive: 0,inactive: 0,inactive: 0,inactive: 0,inactive: 0,inactive: 0,inactive: 0,inactive: 0,inactive: 0,inactive: 0,inactive: 0
CS(=O)(=O)N1CCN(Cc2cn3cc(-c4cnc(N)nc4)nc(N4CCOCC4)c3n2)CC1 (10 µM),inactive: 0,inactive: 0,inactive: 0,inactive: 0,inactive: 0,inactive: 0,active: 1,inactive: 0,inactive: 0,inactive: 0,inactive: 0,inactive: 0,inactive: 0,inactive: 0,inactive: 0,inactive: 0,inactive: 0,inactive: 0,inactive: 0,inactive: 0
Nc1nc2c(ncn2COCCO)c(=O)[nH]1 [Acyclovir] (10 µM),inactive: 0,inactive: 0,inactive: 0,inactive: 0,inactive: 0,inactive: 0,inactive: 0,inactive: 0,inactive: 0,inactive: 0,inactive: 0,inactive: 0,inactive: 0,inactive: 0,inactive: 0,inactive: 0,inactive: 0,inactive: 0,inactive: 0,inactive: 0
C=CCN(/C=C1/C(=O)O[C@H](COC)[C@@]2(C)C1=C(O)C(=O)C1=C2[C@H](OC(C)=O)C[C@]2(C)C(=O)CC[C@@H]12)CC=C [Sonolisib] (2.5 µM),inactive: 0,inactive: 0,inactive: 0,inactive: 0,inactive: 0,inactive: 0,inactive: 0,inactive: 0,inactive: 0,inactive: 0,inactive: 0,inactive: 0,inactive: 0,inactive: 0,inactive: 0,inactive: 0,inactive: 0,inactive: 0,inactive: 0,inactive: 0
CCCC[C@H](CO)Nc1nc(NC)ncc1OC [Interferon receptor inducer-1] (10 µM),inactive: 0,inactive: 0,inactive: 0,inactive: 0,inactive: 0,inactive: 0,inactive: 0,inactive: 0,inactive: 0,inactive: 0,inactive: 0,inactive: 0,inactive: 0,inactive: 0,inactive: 0,inactive: 0,inactive: 0,inactive: 0,inactive: 0,inactive: 0

# 2 of the compounds above, with bars between the fields.
SMILES | kinase-Nluc reporter destabilization hit call [1] | kinase-Nluc reporter destabilization hit call [2] | kinase-Nluc reporter destabilization hit call [3] | kinase-Nluc reporter destabilization hit call [4] | kinase-Nluc reporter destabilization hit call [5] | kinase-Nluc reporter destabilization hit call [6] | kinase-Nluc reporter destabilization hit call [7] | kinase-Nluc reporter destabilization hit call [8] | kinase-Nluc reporter destabilization hit call [9] | kinase-Nluc reporter destabilization hit call [10] | kinase-Nluc reporter destabilization hit call [11] | kinase-Nluc reporter destabilization hit call [12] | kinase-Nluc reporter destabilization hit call [13] | kinase-Nluc reporter destabilization hit call [14] | kinase-Nluc reporter destabilization hit call [15] | kinase-Nluc reporter destabilization hit call [16] | kinase-Nluc reporter destabilization hit call [17] | kinase-Nluc reporter destabilization hit call [18] | kinase-Nluc reporter destabilization hit call [19] | kinase-Nluc reporter destabilization hit call [20]
C=CC(=O)N1CCN(c2nc(OC[C@@H]3CCCN3C)nc3c2CCN(c2cccc4cccc(C)c24)C3)C[C@@H]1CC#N (2.5 µM) | inactive: 0 | inactive: 0 | inactive: 0 | inactive: 0 | inactive: 0 | inactive: 0 | inactive: 0 | inactive: 0 | inactive: 0 | inactive: 0 | inactive: 0 | inactive: 0 | inactive: 0 | inactive: 0 | inactive: 0 | inactive: 0 | inactive: 0 | inactive: 0 | inactive: 0 | inactive: 0
COc1ccc(COc2cc3oc(=O)c4cc(C(C)O)ccc4c3cc2OC)cc1 (stereo not given) [Palomid 529] (2.5 µM) | inactive: 0 | inactive: 0 | inactive: 0 | inactive: 0 | inactive: 0 | inactive: 0 | inactive: 0 | inactive: 0 | inactive: 0 | inactive: 0 | inactive: 0 | inactive: 0 | inactive: 0 | inactive: 0 | inactive: 0 | inactive: 0 | inactive: 0 | inactive: 0 | inactive: 0 | inactive: 0

# — the supplement of paper PMC12823440, “Inhibitors supercharge kinase turnover through native proteolytic circuits” (Nature, 2025)
